Values from PubChem BioAssay AID743454 (Peter MacCallum Cancer Centre, 2014).
Test: 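Knock-downs lowering viability or raising caspase 3/7 activity in vorinostat-treated resistant cells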 (primary screen). System: human HCT116-VR colon cancer cells, selected for vorinostat resistance. Reagent: siRNA pool against human genes, 40 nM siRNA pool. Time to read-out: vorinostat for 24 h, read-out about 72 h after transfection. Treatment: vorinostat at 2.5 µM final. Measured: 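Cell viability by CellTiter-Fluor and caspase 3/7 activity by luminescence, each scaled to mock wells per plate, duplicates averaged, then robust z-scored over all plates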. Scale: viability robust z-score: higher = more viable cells than screen typical; caspase robust z-score: higher = more caspase 3/7 activity than screen typical. Hit rule: 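a knock-down is a hit when classed RV1 or RV2 for lowered viability, or CA1 or CA2 for caspase activation; those lethal without drug were dropped; hits were retested singly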.
The whole screen tested about 18,000 reagents; below is a part drawn at random. 450 of all reagents (2.5%) were called active. 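Single biological run; no consistent viability z cut-off exists, so the class columns, not z-scores, define the calls.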

target gene | viability hit class | caspase hit class | viability robust z-score | caspase robust z-score | outcome
TMEM120B | no change | no change | 0.4 | -0.3 | inactive
ANKLE1 | no change | no change | 1.22 | -0.05 | inactive
SERPINE1 | no change | no change | -0.04 | 0.12 | inactive
TBC1D10B | no change | no change | -0.12 | 0.26 | inactive
TSSK4 | no change | no change | 1.06 | -0.42 | inactive
CD2 | no change | no change | 0.64 | -0.9 | inactive
NOS1AP | no change | no change | -0.32 | -0.02 | inactive
TGFBI | no change | no change | 1.26 | 3.15 | inactive
MEX3C | no change | no change | -0.84 | 4.2 | inactive
RASGRP3 | no change | no change | 0.03 | -0.76 | inactive
L3MBTL1 | no change | no change | 1.2 | -0.77 | inactive
RAB44 | no change | no change | 1.59 | -0.74 | inactive
S100A14 | no change | no change | 0.25 | -0.5 | inactive
CPB1 | no change | no change | -0.51 | 3.32 | inactive
CTSK | no change | no change | 0.7 | -0.6 | inactive
ATXN10 | no change | no change | -0.57 | -0.17 | inactive
GPR17 | no change | no change | -0.42 | -1.24 | inactive
PLN | no change | no change | 0.88 | -0.17 | inactive
JADE2 | no change | no change | -0.04 | 0.7 | inactive
OR51I2 | no change | no change | -1.31 | -0.38 | inactive
GLRB | no change | no change | 0.42 | -0.61 | inactive
NUP153 | no change | no change | -2.57 | 3.17 | inactive
UBE4B | no change | no change | -0.24 | 0.06 | inactive
